PubChem BioAssay AID1508597 – Cure First | 2020

Screen: 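Knock-downs altering ovarian cancer cell survival with or without PARP inhibitor rucaparib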 (primary screen)
System: human ovarian carcinoma lines grown from tumours: OCI-P5x (papillary serous) and OCI-C5x (clear cell)
Reagents: siRNA pool against human genes, 1.25 pmol siRNA per well
Timing: 72 h or 96 h, depending on the cell culture
Treatment: rucaparib 20 µM (about IC30) or vehicle, present until read-out
Read-out: 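Luminescent ATP-based viability assay read 72 or 96 h after transfection, depending on culture, given as normalised percent viability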
Scale: viability, normalised: higher = more viable cells remaining
Active means: 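a well counts as a hit if its normalised viability is under 80 percent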
Meaning of the calls: active = viability under 80%; inactive = viability 80% or more
Shown is a random part of about 2,100 reagents tested. 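Calls flag viability under 80% in either arm, not effects specific to rucaparib; the reference for percent is not stated.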 Some reagents were tested in more than one well and are listed for each. Not stated in the record: the 100% reference.

EMSY (EMSY transcriptional repressor, BRCA2 interacting), rucaparib or vehicle Rucaparib, cell line OCI-C5x (clear cell), technical replicate 1: viability, normalised (%) = 71.4; call = active
EMSY (EMSY transcriptional repressor, BRCA2 interacting), rucaparib or vehicle Rucaparib, cell line OCI-C5x (clear cell), technical replicate 1: viability, normalised (%) = 58.2; call = active
EMSY (EMSY transcriptional repressor, BRCA2 interacting), rucaparib or vehicle Rucaparib, cell line OCI-C5x (clear cell), technical replicate 2: viability, normalised (%) = 64.5; call = active
EMSY (EMSY transcriptional repressor, BRCA2 interacting), rucaparib or vehicle Rucaparib, cell line OCI-C5x (clear cell), technical replicate 2: viability, normalised (%) = 41.6; call = active
EMSY (EMSY transcriptional repressor, BRCA2 interacting), rucaparib or vehicle Rucaparib, cell line OCI-C5x (clear cell), technical replicate 3: viability, normalised (%) = 34.1; call = active
EMSY (EMSY transcriptional repressor, BRCA2 interacting), rucaparib or vehicle Rucaparib, cell line OCI-C5x (clear cell), technical replicate 3: viability, normalised (%) = 66.6; call = active
EMSY (EMSY transcriptional repressor, BRCA2 interacting), rucaparib or vehicle Rucaparib, cell line OCI-P5x (serous), technical replicate 1: viability, normalised (%) = 66; call = active
EMSY (EMSY transcriptional repressor, BRCA2 interacting), rucaparib or vehicle Rucaparib, cell line OCI-P5x (serous), technical replicate 1: viability, normalised (%) = 52.1; call = active
EMSY (EMSY transcriptional repressor, BRCA2 interacting), rucaparib or vehicle Rucaparib, cell line OCI-P5x (serous), technical replicate 2: viability, normalised (%) = 47.7; call = active
EMSY (EMSY transcriptional repressor, BRCA2 interacting), rucaparib or vehicle Rucaparib, cell line OCI-P5x (serous), technical replicate 2: viability, normalised (%) = 63.2; call = active
EMSY (EMSY transcriptional repressor, BRCA2 interacting), rucaparib or vehicle Rucaparib, cell line OCI-P5x (serous), technical replicate 3: viability, normalised (%) = 61.1; call = active
EMSY (EMSY transcriptional repressor, BRCA2 interacting), rucaparib or vehicle Rucaparib, cell line OCI-P5x (serous), technical replicate 3: viability, normalised (%) = 44.2; call = active
EMSY (EMSY transcriptional repressor, BRCA2 interacting), rucaparib or vehicle Vehicle, cell line OCI-C5x (clear cell), technical replicate 1: viability, normalised (%) = 42.9; call = active
EMSY (EMSY transcriptional repressor, BRCA2 interacting), rucaparib or vehicle Vehicle, cell line OCI-C5x (clear cell), technical replicate 1: viability, normalised (%) = 44.7; call = active
EMSY (EMSY transcriptional repressor, BRCA2 interacting), rucaparib or vehicle Vehicle, cell line OCI-C5x (clear cell), technical replicate 2: viability, normalised (%) = 72.4; call = active
EMSY (EMSY transcriptional repressor, BRCA2 interacting), rucaparib or vehicle Vehicle, cell line OCI-C5x (clear cell), technical replicate 2: viability, normalised (%) = 40.5; call = active
EMSY (EMSY transcriptional repressor, BRCA2 interacting), rucaparib or vehicle Vehicle, cell line OCI-C5x (clear cell), technical replicate 3: viability, normalised (%) = 62.2; call = active
EMSY (EMSY transcriptional repressor, BRCA2 interacting), rucaparib or vehicle Vehicle, cell line OCI-C5x (clear cell), technical replicate 3: viability, normalised (%) = 40; call = active
EMSY (EMSY transcriptional repressor, BRCA2 interacting), rucaparib or vehicle Vehicle, cell line OCI-P5x (serous), technical replicate 1: viability, normalised (%) = 56.3; call = active
EMSY (EMSY transcriptional repressor, BRCA2 interacting), rucaparib or vehicle Vehicle, cell line OCI-P5x (serous), technical replicate 1: viability, normalised (%) = 46; call = active
EMSY (EMSY transcriptional repressor, BRCA2 interacting), rucaparib or vehicle Vehicle, cell line OCI-P5x (serous), technical replicate 2: viability, normalised (%) = 43.3; call = active
EMSY (EMSY transcriptional repressor, BRCA2 interacting), rucaparib or vehicle Vehicle, cell line OCI-P5x (serous), technical replicate 2: viability, normalised (%) = 61.3; call = active
EMSY (EMSY transcriptional repressor, BRCA2 interacting), rucaparib or vehicle Vehicle, cell line OCI-P5x (serous), technical replicate 3: viability, normalised (%) = 66.3; call = active
EMSY (EMSY transcriptional repressor, BRCA2 interacting), rucaparib or vehicle Vehicle, cell line OCI-P5x (serous), technical replicate 3: viability, normalised (%) = 52.7; call = active
RAE1 (ribonucleic acid export 1), rucaparib or vehicle Rucaparib, cell line OCI-C5x (clear cell), technical replicate 1: viability, normalised (%) = 48.7; call = active
RAE1 (ribonucleic acid export 1), rucaparib or vehicle Rucaparib, cell line OCI-C5x (clear cell), technical replicate 2: viability, normalised (%) = 41.3; call = active
RAE1 (ribonucleic acid export 1), rucaparib or vehicle Rucaparib, cell line OCI-C5x (clear cell), technical replicate 3: viability, normalised (%) = 38.6; call = active
RAE1 (ribonucleic acid export 1), rucaparib or vehicle Rucaparib, cell line OCI-P5x (serous), technical replicate 1: viability, normalised (%) = 68.6; call = active
RAE1 (ribonucleic acid export 1), rucaparib or vehicle Rucaparib, cell line OCI-P5x (serous), technical replicate 2: viability, normalised (%) = 61.4; call = active
RAE1 (ribonucleic acid export 1), rucaparib or vehicle Rucaparib, cell line OCI-P5x (serous), technical replicate 3: viability, normalised (%) = 58; call = active
RAE1 (ribonucleic acid export 1), rucaparib or vehicle Vehicle, cell line OCI-C5x (clear cell), technical replicate 1: viability, normalised (%) = 37.3; call = active
RAE1 (ribonucleic acid export 1), rucaparib or vehicle Vehicle, cell line OCI-C5x (clear cell), technical replicate 2: viability, normalised (%) = 34.5; call = active
RAE1 (ribonucleic acid export 1), rucaparib or vehicle Vehicle, cell line OCI-C5x (clear cell), technical replicate 3: viability, normalised (%) = 36.2; call = active
RAE1 (ribonucleic acid export 1), rucaparib or vehicle Vehicle, cell line OCI-P5x (serous), technical replicate 1: viability, normalised (%) = 45.3; call = active
RAE1 (ribonucleic acid export 1), rucaparib or vehicle Vehicle, cell line OCI-P5x (serous), technical replicate 2: viability, normalised (%) = 56.6; call = active
RAE1 (ribonucleic acid export 1), rucaparib or vehicle Vehicle, cell line OCI-P5x (serous), technical replicate 3: viability, normalised (%) = 56.9; call = active
MED26 (mediator complex subunit 26), rucaparib or vehicle Rucaparib, cell line OCI-C5x (clear cell), technical replicate 1: viability, normalised (%) = 21.7; call = active
MED26 (mediator complex subunit 26), rucaparib or vehicle Rucaparib, cell line OCI-C5x (clear cell), technical replicate 2: viability, normalised (%) = 19.8; call = active
MED26 (mediator complex subunit 26), rucaparib or vehicle Rucaparib, cell line OCI-C5x (clear cell), technical replicate 3: viability, normalised (%) = 28.9; call = active
MED26 (mediator complex subunit 26), rucaparib or vehicle Rucaparib, cell line OCI-P5x (serous), technical replicate 1: viability, normalised (%) = 50.1; call = active
MED26 (mediator complex subunit 26), rucaparib or vehicle Rucaparib, cell line OCI-P5x (serous), technical replicate 2: viability, normalised (%) = 61.8; call = active
MED26 (mediator complex subunit 26), rucaparib or vehicle Rucaparib, cell line OCI-P5x (serous), technical replicate 3: viability, normalised (%) = 61.3; call = active
MED26 (mediator complex subunit 26), rucaparib or vehicle Vehicle, cell line OCI-C5x (clear cell), technical replicate 1: viability, normalised (%) = 24.2; call = active
MED26 (mediator complex subunit 26), rucaparib or vehicle Vehicle, cell line OCI-C5x (clear cell), technical replicate 2: viability, normalised (%) = 25.6; call = active
MED26 (mediator complex subunit 26), rucaparib or vehicle Vehicle, cell line OCI-C5x (clear cell), technical replicate 3: viability, normalised (%) = 37.7; call = active
MED26 (mediator complex subunit 26), rucaparib or vehicle Vehicle, cell line OCI-P5x (serous), technical replicate 1: viability, normalised (%) = 48.4; call = active
MED26 (mediator complex subunit 26), rucaparib or vehicle Vehicle, cell line OCI-P5x (serous), technical replicate 2: viability, normalised (%) = 38.3; call = active
MED26 (mediator complex subunit 26), rucaparib or vehicle Vehicle, cell line OCI-P5x (serous), technical replicate 3: viability, normalised (%) = 58.9; call = active

Single entries from the list:
Result for MED26 (mediator complex subunit 26), rucaparib or vehicle Rucaparib, cell line OCI-P5x (serous), technical replicate 3 in “call”: active
For “call”, RAE1 (ribonucleic acid export 1), rucaparib or vehicle Vehicle, cell line OCI-P5x (serous), technical replicate 3 has active
